# Reference: the supplement of paper PMC8728848
# The other results are listed elsewhere or left out.
# B1: Awp3 (Candida glabrata), B4UN32 (protein)
# chain: MISFVTLLAILGLLSISWADQTVRSVAGDQRVTDPVIVGDNSILDYYGGSNYDFSNNFEIGRGTLYIGKESYFSSFQSAPTDVPNSFHLLIKNTNNLQNNGQFIIENIKRHANQCSNSSIQVFPINFQNDGEFEIISGGVEGRCCLPTSVIAPQNFLNNGKFYYKVLTDTGSIYSGSCMQNVDIGASTTTTVNNNLWEFTGSINAQINGAVSGAAQINLDGSNMFVNANTFSGQVVNLINGGSFLQTSDPLSNIVVINGLGTSDTGVTSIAVKGKGKSFTYNPSSGIVKLTTVEGKTYAYQIGCGYNTKKFITNNDSGASYESADNFFVLTYSEPYSPQTCQLENSSIFSSNFISTSTSSSSSSSSASSLPSSMSSSLPSSLSSSLSSSLSSSMSSSMSSLFIIPPPYTTTRSSGSSIIDTEIVSFYSTTDSPGHTITGTTTTTLYGPHTHSSVSTPSSSSESSTTSNSSIESSSLPHTSVSSTPESSITPSSNTISSSPTSDFSSVQSSSIMESSSVVASSSVINSSSIVDSSSSSASSLPSSMSSSLSSSMSSSLPSSMSSSLSSSLSSSLSSSMSSSMSSLFIIPPPYTTTRSSGSSIIDTEIVSFYSTTDSPGHTITGTTTTTLYGPHTHSSVSTPSSSSESSTTSNSSIESSSLPHTSVSSTPESSITPSSNTISSSPTSDFSSVQSSSIMESSSVVASSSVINSSSIVDSSSSSASSLPSSMPSSLPSSMSSSLSSSMSSSLSSSLSSSLSSSMSSSMSSLFIIPPPYTTTRSSGSSIIDTEIVSFYSTTDSPGHTITGTTTTTLYGPHTHSSVSTPSSSSESSTTSNSSIESSSLPHTSVSSTPESSITPSSNTISSSPTSDFSSVQSSSIMESSSVVASSSATQSSSVINSSSIVDSSSSSASSLPSSMPSSLPSSLSSSLSSSLSSSMSSSMSSLFIIPPPYTTTRSSGSSIIDTEIVSFYSTTDSPGHTITGTTTTTLYESSIYSSSSSTIQESELSNTSRTTMTSNSSVSISSTSSRSSFSNTKSSTIVISQSASLPDSKTDIILSTSSNIGYSSRSLLSDLGTSISDSDIHHSVLHSTESYSSNESGTNPFTSIASLSNFIPESSSHTSTALGSENSVISSDILTTMSHPVATNSGDKPTTPKRSEQVSTTMTSSGPTPDTSSFDTDGMSAYSRPEFTTNSLEVNKSSTSQLGNNKQTFSNLQLESTRPHSENEVDNNTRLLQSIQQSSTYGTNNVNPLSPTGSISIPLTEDGQGDNNNWNSPATNDLCTQISFNLTATTITVTDRITITDSIHDISSEVITSYIYQTIVDQKTVTQTVDGKSLANKMSSIPKPSSRSLIQPQPPVAIELQEGAASTSRVSLVSLFISIILVLL
# Experiments:
# Test in all cases: glycan array binding signal (z-score within array); higher = stronger binding
# Settings in all cases: glycan notation: IUPAC condensed, linker removed
# [1] = target: Fuc(a1-2)[GalNAc(a1-3)]Gal(b1-3)GlcNAc(b1-6)GalNAc
# Procedure, shortened: (§1)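 Arrays were curated from the Consortium for Functional Glycomics database, 3228 in total, and kept only where the protein sequence was available. Binding is expressed as a within-array Z-score. This score was averaged across arrays of the same protein sequence at different concentrations or buffers and across linkers, and negative values can be read as non-binding.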
# [2] = target: Fuc(a1-2)[GalNAc(a1-3)]Gal(b1-4)Glc
# Procedure, shortened: as §1
# [3] = target: Fuc(a1-2)[GalNAc(a1-3)]Gal(b1-4)GlcNAc
# Procedure, shortened: as §1
# [4] = target: Fuc(a1-2)[GalNAc(a1-3)]Gal(b1-4)GlcNAc(b1-2)Man
# Procedure, shortened: as §1
# [5] = target: Fuc(a1-2)[GalNAc(a1-3)]Gal(b1-4)GlcNAc(b1-2)Man(a1-3)[Fuc(a1-2)[GalNAc(a1-3)]Gal(b1-4)GlcNAc(b1-2)Man(a1-6)]Man(b1-4)GlcNAc(b1-4)GlcNAc
# Procedure, shortened: as §1
# [6] = target: Fuc(a1-2)[GalNAc(a1-3)]Gal(b1-4)GlcNAc(b1-2)Man(a1-3)[Fuc(a1-2)[GalNAc(a1-3)]Gal(b1-4)GlcNAc(b1-2)Man(a1-6)]Man(b1-4)GlcNAc(b1-4)[Fuc(a1-6)]GlcNAc
# Procedure, shortened: as §1
# [7] = target: Fuc(a1-2)[GalNAc(a1-3)]Gal(b1-4)GlcNAc(b1-3)Gal(b1-4)GlcNAc
# Procedure, shortened: as §1
# [8] = target: Fuc(a1-2)[GalNAc(a1-3)]Gal(b1-4)GlcNAc(b1-3)Gal(b1-4)GlcNAc(b1-3)Gal(b1-4)GlcNAc
# Procedure, shortened: as §1
# [9] = target: Fuc(a1-2)[GalNAc(a1-3)]Gal(b1-4)GlcNAc(b1-3)GalNAc
# Procedure, shortened: as §1
# [10] = target: Fuc(a1-2)[GalNAc(a1-3)]Gal(b1-4)GlcNAc(b1-3)[Fuc(a1-2)[GalNAc(a1-3)]Gal(b1-4)GlcNAc(b1-6)]GalNAc
# Procedure, shortened: as §1
# [11] = target: Fuc(a1-2)[GalNAc(a1-3)]Gal(b1-4)GlcNAc(b1-6)GalNAc
# Procedure, shortened: as §1
# [12] = target: Fuc(a1-2)[GalNAc(a1-3)]Gal(b1-4)[Fuc(a1-3)]GlcNAc
# Procedure, shortened: as §1
# [13] = target: Fuc(a1-2)[GalNAc(a1-3)]Gal(b1-4)[Fuc(a1-3)]GlcNAc(b1-3)GalNAc
# Procedure, shortened: as §1
# [14] = target: Fuc(a1-2)[GalNAc(a1-4)]Gal(b1-4)GlcNAc
# Procedure, shortened: as §1
# [15] = target: Fuc(a1-2)[GalNAc(b1-3)]Gal
# Procedure, shortened: as §1
# Fuc(a1-3)GlcNAc = target: Fuc(a1-3)GlcNAc
# Procedure, shortened: as §1
# [16] = target: Fuc(a1-3)[Gal(b1-4)]Glc6S
# Procedure, shortened: as §1
# [17] = target: Fuc(a1-3)[Gal(b1-4)]GlcNAc
# Procedure, shortened: as §1
# [18] = target: Fuc(a1-3)[Gal(b1-4)]GlcNAc(b1-2)Man
# Procedure, shortened: as §1
# [19] = target: Fuc(a1-3)[Gal(b1-4)]GlcNAc(b1-2)Man(a1-3)[Fuc(a1-3)[Gal(b1-4)]GlcNAc(b1-2)Man(a1-6)]Man(b1-4)GlcNAc(b1-4)GlcNAc
# Procedure, shortened: as §1
# [20] = target: Fuc(a1-3)[Gal(b1-4)]GlcNAc(b1-2)Man(a1-3)[Fuc(a1-3)[Gal(b1-4)]GlcNAc(b1-2)Man(a1-6)]Man(b1-4)GlcNAc(b1-4)[Fuc(a1-6)]GlcNAc
# Procedure, shortened: as §1
# [21] = target: Fuc(a1-3)[Gal(b1-4)]GlcNAc(b1-3)Gal(b1-3)[Fuc(a1-4)]GlcNAc
# Procedure, shortened: as §1
# [22] = target: Fuc(a1-3)[Gal(b1-4)]GlcNAc(b1-3)Gal(b1-4)[Fuc(a1-3)]GlcNAc
# Procedure, shortened: as §1
# [23] = target: Fuc(a1-3)[Gal(b1-4)]GlcNAc(b1-3)Gal(b1-4)[Fuc(a1-3)]GlcNAc(b1-3)Gal(b1-4)[Fuc(a1-3)]GlcNAc
# Procedure, shortened: as §1
# [24] = target: Fuc(a1-3)[Gal(b1-4)]GlcNAc(b1-3)GalNAc
# Procedure, shortened: as §1
# [25] = target: Fuc(a1-3)[Gal(b1-4)]GlcNAc(b1-6)GalNAc
# Procedure, shortened: as §1
# [26] = target: Fuc(a1-3)[Gal(b1-4)]GlcNAc(b1-6)[Gal(b1-3)GlcNAc(b1-3)]Gal(b1-4)Glc
# Procedure, shortened: as §1
# [27] = target: Fuc(a1-3)[Gal(b1-4)]GlcNAc6S
# Procedure, shortened: as §1
# [28] = target: Fuc(a1-3)[Gal3S(b1-4)]Glc
# Procedure, shortened: as §1
# [29] = target: Fuc(a1-3)[Gal3S(b1-4)]GlcNAc
# Procedure, shortened: as §1
# [30] = target: Fuc(a1-3)[Gal3S(b1-4)]GlcNAc6S
# Procedure, shortened: as §1
# [31] = target: Fuc(a1-3)[GalNAc(b1-4)]GlcNAc
# Procedure, shortened: as §1
# [32] = target: Fuc(a1-3)[GalNAc(b1-4)]GlcNAc6S
# Procedure, shortened: as §1
# Fuc(a1-4)GlcNAc = target: Fuc(a1-4)GlcNAc
# Procedure, shortened: as §1
# Fuc(b1-3)GlcNAc = target: Fuc(b1-3)GlcNAc
# Procedure, shortened: as §1
# Gal(a1-2)Gal = target: Gal(a1-2)Gal
# Procedure, shortened: as §1
# Gal(a1-3)Gal = target: Gal(a1-3)Gal
# Procedure, shortened: as §1
# Gal(a1-3)Gal(b1-3)GlcNAc = target: Gal(a1-3)Gal(b1-3)GlcNAc
# Procedure, shortened: as §1
# [33] = target: Gal(a1-3)Gal(b1-3)GlcNAc(b1-2)Man
# Procedure, shortened: as §1
# [34] = target: Gal(a1-3)Gal(b1-3)GlcNAc(b1-2)Man(a1-3)[Gal(a1-3)Gal(b1-3)GlcNAc(b1-2)Man(a1-6)]Man(b1-4)GlcNAc(b1-4)GlcNAc
# Procedure, shortened: as §1
# [35] = target: Gal(a1-3)Gal(b1-3)GlcNAc(b1-3)GalNAc
# Procedure, shortened: as §1
# [36] = target: Gal(a1-3)Gal(b1-3)GlcNAc(b1-6)GalNAc
# Procedure, shortened: as §1
# [37] = target: Gal(a1-3)Gal(b1-3)[Fuc(a1-4)]GlcNAc(b1-2)Man(a1-3)[Gal(a1-3)Gal(b1-3)[Fuc(a1-4)]GlcNAc(b1-2)Man(a1-6)]Man(b1-4)GlcNAc(b1-4)GlcNAc
# Procedure, shortened: as §1
# Gal(a1-3)Gal(b1-4)Glc = target: Gal(a1-3)Gal(b1-4)Glc
# Procedure, shortened: as §1
# Gal(a1-3)Gal(b1-4)GlcNAc = target: Gal(a1-3)Gal(b1-4)GlcNAc
# Procedure, shortened: as §1
binder,measurement,setting,value
B1,glycan array binding signal (z-score),[1],0.16
same,glycan array binding signal (z-score),[2],0.303
same,glycan array binding signal (z-score),[3],0.008
same,glycan array binding signal (z-score),[4],-0.968
same,glycan array binding signal (z-score),[5],-0.074
same,glycan array binding signal (z-score),[6],0.233
same,glycan array binding signal (z-score),[7],-1.51
same,glycan array binding signal (z-score),[8],0.634
same,glycan array binding signal (z-score),[9],-1.39
same,glycan array binding signal (z-score),[10],0.218
same,glycan array binding signal (z-score),[11],0.264
same,glycan array binding signal (z-score),[12],-0.973
same,glycan array binding signal (z-score),[13],-1.25
same,glycan array binding signal (z-score),[14],-0.218
same,glycan array binding signal (z-score),[15],1.15
same,glycan array binding signal (z-score),Fuc(a1-3)GlcNAc,-1.25
same,glycan array binding signal (z-score),[16],-1.57
same,glycan array binding signal (z-score),[17],-1.34
same,glycan array binding signal (z-score),[18],1.78
same,glycan array binding signal (z-score),[19],-0.607
same,glycan array binding signal (z-score),[20],0.65
same,glycan array binding signal (z-score),[21],-1.29
same,glycan array binding signal (z-score),[22],1.09
same,glycan array binding signal (z-score),[23],0.147
same,glycan array binding signal (z-score),[24],0.518
same,glycan array binding signal (z-score),[25],0.39
same,glycan array binding signal (z-score),[26],-0.414
same,glycan array binding signal (z-score),[27],1.18
same,glycan array binding signal (z-score),[28],-0.133
same,glycan array binding signal (z-score),[29],-0.473
same,glycan array binding signal (z-score),[30],0.585
same,glycan array binding signal (z-score),[31],0.68
same,glycan array binding signal (z-score),[32],1.2
same,glycan array binding signal (z-score),Fuc(a1-4)GlcNAc,0.299
same,glycan array binding signal (z-score),Fuc(b1-3)GlcNAc,-0.579
same,glycan array binding signal (z-score),Gal(a1-2)Gal,-0.832
same,glycan array binding signal (z-score),Gal(a1-3)Gal,0.937
same,glycan array binding signal (z-score),Gal(a1-3)Gal(b1-3)GlcNAc,-0.723
same,glycan array binding signal (z-score),[33],1.14
same,glycan array binding signal (z-score),[34],0.241
same,glycan array binding signal (z-score),[35],0.407
same,glycan array binding signal (z-score),[36],-1.37
same,glycan array binding signal (z-score),[37],1.73
same,glycan array binding signal (z-score),Gal(a1-3)Gal(b1-4)Glc,0.672
same,glycan array binding signal (z-score),Gal(a1-3)Gal(b1-4)GlcNAc,1.06

# Part of the list above, tab-delimited.
binder	measurement	setting	value
B1	glycan array binding signal (z-score)	[2]	0.303
same	glycan array binding signal (z-score)	[4]	-0.968
same	glycan array binding signal (z-score)	[5]	-0.074
same	glycan array binding signal (z-score)	[6]	0.233
same	glycan array binding signal (z-score)	[13]	-1.25
same	glycan array binding signal (z-score)	[15]	1.15
same	glycan array binding signal (z-score)	[17]	-1.34
same	glycan array binding signal (z-score)	[27]	1.18
same	glycan array binding signal (z-score)	[30]	0.585
same	glycan array binding signal (z-score)	Fuc(a1-4)GlcNAc	0.299
same	glycan array binding signal (z-score)	Fuc(b1-3)GlcNAc	-0.579
same	glycan array binding signal (z-score)	[33]	1.14
same	glycan array binding signal (z-score)	Gal(a1-3)Gal(b1-4)GlcNAc	1.06
